# System: Hela
# Test: Anti-proliferative activity, CTG assay, Hela cells
# Type: cell-based
# Conditions: Homo sapiens, 72 h, read-out: Inhibition rate Hela (%)
# Method: RPMI 8226 and HL-7702 cells were cultured in RPMI-1640 medium, Hela cells were cultured in MEM medium, and HL-60 cells were cultured in IMDM medium with 1% penicillin–streptomycin solution and 10% FBS, respectively. The above cells were cultured at 37 °C and 5% CO2. After 24 h of cell spreading, 99 μL of medium per well was prepared and 1 μL of the compound prepared solution was added to the wells. Then, the solution was incubated at 37 °C in a 5% CO2 incubator for 72 h. The cell plates to be tested were left at room temperature and 100 μL of medium per well was discarded. Then, 100 μL of CTG reagent was added, placed in a rapid shaker for 2 min, and left at room temperature away from light for 30 min. The chemiluminescence signal was read by an envision multifunctional enzyme marker. The inhibition ratios and IC50 values were calculated using Prism Graph Pad software.
smiles,measurement,setting,value
"O=C(CCCCCCC(=O)Nc1ccccc1)NO [SAHA, vorinostat, reference compound]",inhibition at 10 µM,10 μM,96.06 ± 0.7%
same,inhibition at 50 µM,50 μM,99.78 ± 0.15%
